Measurements taken from article PMC3342958, “IDN2 and Its Paralogs Form a Complex Required for RNA–Directed DNA Methylation”.

T1: IDN2-6xMyc (Arabidopsis thaliana) (UniProt Q8VZ79)
T1 sequence: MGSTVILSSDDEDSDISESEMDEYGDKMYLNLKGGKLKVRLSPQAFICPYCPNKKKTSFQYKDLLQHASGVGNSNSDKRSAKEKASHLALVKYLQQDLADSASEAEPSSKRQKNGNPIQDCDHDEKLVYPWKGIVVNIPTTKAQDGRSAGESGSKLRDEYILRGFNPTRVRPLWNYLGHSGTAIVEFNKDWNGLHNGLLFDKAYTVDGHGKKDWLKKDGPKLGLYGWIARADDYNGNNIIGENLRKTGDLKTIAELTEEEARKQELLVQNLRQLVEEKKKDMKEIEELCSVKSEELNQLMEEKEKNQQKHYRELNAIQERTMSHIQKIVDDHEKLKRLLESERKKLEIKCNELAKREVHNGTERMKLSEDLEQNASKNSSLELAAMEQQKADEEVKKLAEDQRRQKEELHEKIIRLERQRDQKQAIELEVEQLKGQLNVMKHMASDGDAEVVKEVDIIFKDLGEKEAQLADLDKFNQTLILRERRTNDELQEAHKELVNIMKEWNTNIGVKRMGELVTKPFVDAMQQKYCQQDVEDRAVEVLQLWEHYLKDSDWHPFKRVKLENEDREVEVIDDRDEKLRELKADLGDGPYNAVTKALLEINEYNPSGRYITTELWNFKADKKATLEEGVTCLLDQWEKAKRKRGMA

T2: IDN2W616A-6xMyc (Arabidopsis thaliana) (UniProt Q8VZ79)
T2 sequence: T1 sequence with W616A

T3: IDP1-3xFlag (Arabidopsis thaliana) (UniProt Q9S9P3)
T3 sequence: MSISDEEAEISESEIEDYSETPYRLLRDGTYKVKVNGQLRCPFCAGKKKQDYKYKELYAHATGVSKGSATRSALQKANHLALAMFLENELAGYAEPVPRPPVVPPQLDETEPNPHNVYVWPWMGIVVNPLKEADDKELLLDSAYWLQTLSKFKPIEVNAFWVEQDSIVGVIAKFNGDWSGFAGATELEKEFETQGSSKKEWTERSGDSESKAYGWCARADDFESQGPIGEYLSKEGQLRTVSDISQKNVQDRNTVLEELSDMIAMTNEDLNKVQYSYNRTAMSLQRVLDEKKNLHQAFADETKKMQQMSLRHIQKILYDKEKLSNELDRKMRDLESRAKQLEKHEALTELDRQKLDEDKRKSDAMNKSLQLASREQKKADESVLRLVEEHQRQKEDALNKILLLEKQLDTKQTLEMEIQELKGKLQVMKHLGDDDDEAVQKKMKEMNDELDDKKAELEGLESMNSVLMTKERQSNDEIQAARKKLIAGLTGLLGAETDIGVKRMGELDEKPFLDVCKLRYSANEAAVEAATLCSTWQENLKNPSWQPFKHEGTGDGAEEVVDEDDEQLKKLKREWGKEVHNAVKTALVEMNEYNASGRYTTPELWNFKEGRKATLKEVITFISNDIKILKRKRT

B1: IDP1 (IDN2 PARALOG 1), endogenous (protein, UniProt Q9S9P3 1-634)
chain: T3 sequence
B2: IDP2 (IDN2 PARALOG 2), endogenous (protein, UniProt F4JH53 1-635)
chain: MDISDEESEISESEIEEYSKTPYHLLRSETYYKVKVNGRLRCPFCVGKKKQDYKYKELHAHATGVSKGSATRSALQKSNHLALAKFLENDLAGYAEPLPRPPVVPPLLDETEPNPHNVYVWPWMGIVVNPLKETDDKELLLDSVYWLQTLSKFKPVEVNAFWVEQDSIVGVIAKFDSDWSGFAAATELEKEFETQGSCKKEWTERSGDSESKAYGWCARADDFQSQGPIGEYLSKEGTLRTVSDILQNNVQDRNTLLDVLSNMIDMTNEDLNKAQHSYNRTAMSLQRVLDEKKNLHQAFAEETKKMQQMSLRHIQRILYDKEKLRNELDRKMRDLESRAKQLEKHEALTELERQKLDEDKRKSDAMNKSLQLASREQKKADESVLRLVEEHQRQKEDALNKILLLEKQLDTKQTLEMEIQELKGKLQVMKHLGDDDDEAVQTKMKEMNDELDDKKAELEDLESMNSVLMTKERQSNDEIQAARQKMIAGLTGLLGAESDIGVKRMGELDEKPFLDVCKLRYSANEARVEAATLCSTWKENLKNPSWQPFKREGTGDGAEEVVDEDDEQLKKLKREWGKEVHNAVKAALVEMNEYNASGRYPTSELWNFKEGRKATLKEVITFISTDIKNLKRKRT
B3: IDN2, endogenous (protein, UniProt Q8VZ79 1-647)
chain: T1 sequence
B4: At3g12550, endogenous (protein, UniProt Q9LHB1 1-638)
chain: MNNKLSDFEKNLYKKLKSGKLEVKVSYRTFLCPYCPDNKKKVGLYVDILQHASGVGNSQSKKRSLTEKASHRALAKYLIKDLAHYATSTISKRLKARTSFIPAETGDAPIIYDDAQFEKLVWPWKGVLVNIPTTSTEDGRSCTGESGPKLKDELIRRGFNPIRVRTVWDRFGHSGTGIVEFNRDWNGLQDALVFKKAYEGDGHGKKDWLCGATDSSLYAWLANADDYYRANILGENLRKMGDLKSIYRFAEEEARKDQKLLQRLNFMVENKQYRLKKLQIKYSQDSVKLKYETEEKEKILRAYSEDLTGRQQKSTDHFNRIFADHEKQKVQLESQIKELEIRKLELAKREAENETQRKIVAKELEQNAAINSYVQLSALEQQKTREKAQRLAVDHKMQKEKLHKRIAALERQLDQKQELELEVQQLKSQLSVMRLVELDSGSEIVNKVETFLRDLSETEGELAHLNQFNQDLVVQERKSNDELQEARRALISNLRDMGLHIGVKRMGELDTKPFMKAMRIKYCQEDLEDWAVEVIQLWEEYLKDPDWHPFKRIKLETAETIVEVIDEDDEKLRTLKNELGDDAYQAVANALLEINEYNPSGRYISSELWNFREDRKATLEEGVNSLLEQWNQAKHLKS

How the values were obtained:
[1] = target: T1, IDN2-6xMyc (Arabidopsis thaliana); test: affinity purification with mass spectrometry; extracts of IDN2-6xMyc (wild-type or mutated) transgenic plants on Anti-c-Myc Agarose, 4°C 2.5 h, lysis buffer 50 mM Tris pH 7.6, 150 mM NaCl, 5 mM MgCl2, 10% glycerol, 0.1% NP-40; eluted with 0.1 M ammonium hydroxide; SDS-PAGE, silver staining, total proteins or the ∼80-KDa band analysed by LTQ mass spectrometry
[2] = target: T1, IDN2-6xMyc (Arabidopsis thaliana); test: as above; remark: listed apart in the source
[3] = target: T2, IDN2W616A-6xMyc (Arabidopsis thaliana); test: as above
[4] = target: T3, IDP1-3xFlag (Arabidopsis thaliana); test: affinity purification with mass spectrometry; extracts of IDP1-3xFlag transgenic plants (wild-type background) on Anti-Flag M1 Agarose, 4°C 2.5 h, eluted with 3xFlag peptide; total purified proteins analysed by mass spectrometry

Row | Molecule | binding [1] | binding [2] | binding [3] | binding [4]
1 | At4g01780, endogenous | no binding |  |  | 
2 | B1 |  | binds | binds | 
3 | B2 |  | binds | binds | 
4 | B3 |  | binds |  | binds
5 | B4 |  | no binding |  | 

Substitutions are numbered along the chain they refer to. Like-named read-outs stand apart in the source and are kept apart here. No constants are given. Whether binding was seen depends on the method and setting. Binding seen in cells or lysates may run through a third protein. These calls come from enrichment with a bait or labelling near it, and not all partners need be listed. For some assays here: A no says only that the protein was not detected with the bait. Sequences can lack the tags named with a protein.
